Measurements: patent US20240327540A1
Results are given in words; binding and its absence hold for the method and conditions named. Some results given as binding are weak or reduced against the parent protein; the word gives no strength.

Protein sequences, listed by entry. Tags and fused reporters are not part of them. Lines headed by an entry give the natural chain unless they say otherwise; changes in a name come on top.
UniProt Q9UNK4: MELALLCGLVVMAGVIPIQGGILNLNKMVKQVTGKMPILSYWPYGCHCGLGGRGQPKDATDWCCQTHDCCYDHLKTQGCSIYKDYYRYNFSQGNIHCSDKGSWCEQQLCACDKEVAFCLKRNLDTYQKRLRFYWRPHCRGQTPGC

B1: 44.64E1.B12 (antibody, V domains shown)
VH: DVQLQESGPGLVKPSQSLSLTCSVTGYSITSGYYWNWIRQFPGNKLEWMGYISYDGSNNYNPSLKSRISITRDTSKNQFFLKLNSVTTEDTATYYCARWGYYDSRIDYWGQGTTLTVSS
VL: ETTVTQSPASLSMAIGEKVTIRCITSTDIDDDMNWFQQKPGEPPKLLISEGNTLRPGVPSRFSSNGSGTDFVFTIENMLSEDVADYYCLQSDNLPFTFGAGTKVELK
B2: 48.51A2.B12 (antibody, V domains shown)
VH: QVTLKESGPGILQPSQTLSLTCSFSGFSLSTYAMGVGWIRQPSGKGLEWLANIWWDDDKFYNPSLKNRLTISRDTSTNQAFLKITNVDSADTATYYCSRLGVRWSHYFDYWGQGVMVTVSS
VL: DIQMTQSPSSLSASLGDRVTITCRASQDIGNFLSWFQQKPGKSPRLMIYGATNLEDGVPSRFSGSRSGSDYSLTISSLESEDTAIYYCLQYEKYFTFGSGTKLEIK
B3: 44.91D1.E4 (antibody, V domains shown)
VH: QVTLKESGPGTLQSSQTLSLTCSFSGFSLNTSTMGVSWIRQPSGKGLEWLAHIYWDDDKRYNPSLKSRLTISKDTSRNQVFLKITSVDTADTATYYCARRRVYDFDFDYWGQGTTLTVSS
VL: QIVLTQSPAIMSASPGEKVTISCSASSSVSYMYWYQQKPGSSPKPWIYRTSNLASGVPARFSGSGSGTSYSLTISSMEAEDAATYFCQQYHSYPPTFGGGTKLEIK
B4: 48.7C11.D10.D2 (antibody, V domains shown)
VH: EVQLVESGGGLVQPGRSMKLSCAALGFTFSNYYMAWVRQAPTKGLEWVASISTGGGITYFRDSVKGRVTLSRDNEKSTLYLQMDSLRSEDTATYYCARHDYGGSYWYFDFWGPGTMVTVSS
VL: DIVMTQTPSSQAVSAGEKVTMNCKSSQSLLYNENKKNYLAWYQQKPGQSPKLLIYWASSRESGAPDRFIGSGSGTDFTLTISSVQAEDLAVYYCQQYYNFPYTFGAGTKLELK
B5: 48.73A4.B6 (antibody, V domains shown)
VH: EVQLVESGGGLVQPGRSLKLSCVASGFTFNNYWMTWIRQAPGKRLEWVASITDTGGITYYPDSVKGRFTISRDNAKNTLYLQMNSLRSEDTATYYCTRRDLPGYQWDYWGQGVMVTVSS
VL: SYELIQPPSASVTLENTVSITCSGDELSNKYALWYQQKPDKTILEVMYKDSERPSGISDRFSGSSSGTTAILTIRDAQAEDEADYYCLSTYSDDDLPVFGGGTKLTVL
B6: 48.74C11.G4 (antibody, V domains shown)
VH: EVQLVESGGGLVQPGRSLKLSCAASGFTYSNYVMVWVRQAPTKGLEWVASISAGGDDTYYRDSVKGRFTISRDNAKNTLYLQMDTLRSEDTATYYCARDMGNSGSYCFDYWGQGVMVTVSS
VL: DIQMTQSPASLSASLGEIISIECLASEGISSCLAWYQQKPGKSPQLLIYGGNNLQIGVPSRFSGSGSGTQYSLKISNMQPEDEGDYFCQQSYKFPYTFGAGTKLELK
B7: 48.26G10.A9 (antibody, V domains shown)
VH: QVQLQQSGAELAKPGSSVKISCKASGYTFTTYAMHWIKQTTGQALEWTGYIGPGSGSTWYNENFKGKATLTVDKSSSTAYMQLSSLTPADTAVYYCARGGYSGDDWFAYWGQGTLVTVSS
VL: DILMTQSPSSMSASLGDRVTITCQASQDIGNNLIWFQQKPGKSPRRMIYYATNLANGVPSRFSGSRSGSDYSLTIISLESEDMADYHCLQYKQSPLTFGSGTKLEIK

Each binder was assayed against human PLA2G2D (human) (UniProt Q9UNK4) (assay: ELISA / flow cytometry screening of hybridoma antibodies).

binding | Binder
binds | B1
binds | B2
binds | B3
binds | B4
binds | B5
binds | B6
binds | B7

The binders below were run against human PLA2G2D (human) (UniProt Q9UNK4) (assay: assay not given).

binding | Binder
binds | B1
binds | B2
binds | B3
binds | B4
binds | B5
binds | B6
binds | B7
